Changes are numbered by the printed parent chain. Results are given in words; binding and its absence hold for the method and conditions named. Some entries that bind do so weakly or less than the wild type.
Legend:
[1] = molecular target: T1, human TSLP recombinant protein (human, UniProt Q969D9 29-159, biotinylated in the blocking and cell-binding assays (sites not given)); experiment: ELISA on coated human TSLP
[2] = molecular target: Cynomolgus macaques TSLP recombinant protein (Cynomolgus macaques); experiment: ELISA on coated cynomolgus TSLP
[3] = molecular target: T1, human TSLP recombinant protein; experiment: ELISA, human TSLP coated at 1 ug/mL, anti-human IgG Fc-HRP, A450
[4] = molecular target: T1, human TSLP recombinant protein; experiment: competition ELISA: antibody pre-incubated with 60 ng/mL biotinylated human TSLP, added to coated human TSLPR-Fc, SA-HRP, A450; blocked partner human TSLPR
[5] = molecular target: Cynomolgus macaques TSLP recombinant protein (Cynomolgus macaques); experiment: competition ELISA: antibody pre-incubated with 60 ng/mL biotinylated Cynomolgus macaques TSLP, added to coated Cynomolgus macaques TSLPR-Fc, SA-HRP, A450; blocked partner Cynomolgus macaques TSLPR
[6] = molecular target: Cynomolgus macaques TSLP recombinant protein (Cynomolgus macaques); experiment: SPR BIAcore T200
[7] = molecular target: T1, human TSLP recombinant protein; experiment: SPR BIAcore T200
[8] = molecular target: Cynomolgus macaques TSLP recombinant protein (Cynomolgus macaques); experiment: ELISA, Cynomolgus macaques TSLP coated at 1 ug/mL, anti-human IgG Fc-HRP, A450
[9] = molecular target: T1, human TSLP recombinant protein; experiment: flow cytometry blocking: antibody pre-incubated with biotinylated human TSLP, added to Ba/F3-hTSLPR-IL7Rα cells, SA-PE; blocked partner cell-surface human TSLPR

The chains behind the UniProt entries cited, without tags or fusion partners. Where a name states a change or a piece, a line headed by the entry shows the natural chain unless it says otherwise.
UniProt Q969D9: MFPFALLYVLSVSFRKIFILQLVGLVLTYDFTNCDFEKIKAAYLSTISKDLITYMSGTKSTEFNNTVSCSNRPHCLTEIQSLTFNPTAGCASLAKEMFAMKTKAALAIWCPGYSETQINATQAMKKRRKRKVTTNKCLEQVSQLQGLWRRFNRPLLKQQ

Measured: binding

B1: Ab10 (antibody, V domains shown)
VH: QVQLVQSGAEVKKPGSSVKVSCKASGYTFTDYWMHWVRQAPGQGLEWMGIIDPSDSDTSLNQKFQGRVTITADTSTSTAYMELSSLRSEDTAVYYCARSLDGYYDYWGQGTLVTVSS
VL: DIQMTQSPSSLSASVGDRVTITCRASENIYSYLAWYQQKPGKAPKLLIYNARTLPEGVPSRFSGSGSGTDFTLTISSLQPEDFATYYCQHHYTTPWTFGQGTKVEIK
notes: Humanized; also called h39G5VHv10/h39G5VKv1
binds: [1] | [2] | [3] | [4] | [5]

B2: Ab26 (antibody, V domains shown)
VH: B1 VH
VL: B1 VL with A25T, N50F, R52K, P55T, E56D, T93G
notes: Humanized; also called h39G5VHv10/h71G4VKv1; h39G5VHv10/h71G4VKv1 hIgG1
binds: [6] | [7] | [1] | [2] | [3] | [8] | [4] | [9] | [5]

Source: patent US20230029835A1 (KEYMED BIOSCIENCES, published 2023)
